Measured data: PubChem BioAssay AID504764 (Drosophila RNAi Screening Center, 2011)

Test: 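Genome-wide screen for regulators of Notch-driven gene expression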 (primary screen)
Cells: Drosophila Kc167 cells
Reagents: long dsRNA against Drosophila genes
Timing: about 5 days (4 days dsRNA, then 24 h after transfection)
Challenge: transfection of constitutively active membrane-tethered Notch lacking the extracellular domain, read 24 h later
Detection: 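Firefly luciferase from an E(spl)m3 reporter with active Notch, plus control-promoter and uninduced reporter wells for normalisation; unnormalised counts, duplicate wells a and b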
Scale: induced reporter light, run 1, well a and induced reporter light, run 1, well b: higher = more light from the Notch target reporter with active Notch; control promoter light, run 1, well a and control promoter light, run 1, well b: higher = more light from the viral control promoter (cell number, transfection, viability); uninduced reporter light, run 1, well a: higher = more light from the Notch target reporter without active Notch
Call rule: 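Wells with low control signal or poorly matching duplicates excluded; duplicates averaged; per source plate, z beyond ±2 for induced/control log2 ratio or beyond ±1.8 for induced/uninduced marks a hit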
Calls: active = modifier hit (raised or lowered Notch signal); inactive = not a hit
The deposit covers about 22,000 reagents; this is a random part of those with a known target gene and a result. Over the whole deposit, 403 (1.9%) are marked active. 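Unnormalised raw counts per well; ratio z-scores behind the hit calls and whether each hit raises or lowers signal are not deposited.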 Reagents against one gene are numbered here. A plus sign joins genes that one reagent is predicted to hit. No sequences are given here. Not given: the amount of reagent.

CG11779 + CG5835 — induced reporter light, run 1, well a: 1.81e5; induced reporter light, run 1, well b: 1.63e5; control promoter light, run 1, well a: 1.72e5; control promoter light, run 1, well b: 1.66e5; uninduced reporter light, run 1, well a: 12240; outcome: inactive
CG12641 (retired record) — induced reporter light, run 1, well a: 16580; induced reporter light, run 1, well b: 12520; control promoter light, run 1, well a: 19710; control promoter light, run 1, well b: 17010; uninduced reporter light, run 1, well a: 3190; outcome: inactive
CG13285 — induced reporter light, run 1, well a: 3.22e5; induced reporter light, run 1, well b: 2.93e5; control promoter light, run 1, well a: 3.48e5; control promoter light, run 1, well b: 3.64e5; uninduced reporter light, run 1, well a: 15430; outcome: inactive
comr — induced reporter light, run 1, well a: 37335; induced reporter light, run 1, well b: 30120; control promoter light, run 1, well a: 33050; control promoter light, run 1, well b: 31370; uninduced reporter light, run 1, well a: 2205; outcome: inactive
yip7 — induced reporter light, run 1, well a: 2.60e5; induced reporter light, run 1, well b: 2.90e5; control promoter light, run 1, well a: 3.62e5; control promoter light, run 1, well b: 3.05e5; uninduced reporter light, run 1, well a: 15265; outcome: inactive
CG10051 — induced reporter light, run 1, well a: 81045; induced reporter light, run 1, well b: 86945; control promoter light, run 1, well a: 96380; control promoter light, run 1, well b: 91470; uninduced reporter light, run 1, well a: 5755; outcome: inactive
CG17169 — induced reporter light, run 1, well a: 68180; induced reporter light, run 1, well b: 69075; control promoter light, run 1, well a: 87770; control promoter light, run 1, well b: 1.02e5; uninduced reporter light, run 1, well a: 7650; outcome: inactive
Grx1 — induced reporter light, run 1, well a: 1.49e5; induced reporter light, run 1, well b: 1.15e5; control promoter light, run 1, well a: 2.04e5; control promoter light, run 1, well b: 2.82e5; uninduced reporter light, run 1, well a: 6010; outcome: active
tok — induced reporter light, run 1, well a: 24030; induced reporter light, run 1, well b: 26825; control promoter light, run 1, well a: 22165; control promoter light, run 1, well b: 24560; uninduced reporter light, run 1, well a: 1800; outcome: inactive
hay — induced reporter light, run 1, well a: 1.26e5; induced reporter light, run 1, well b: 98430; control promoter light, run 1, well a: 78160; control promoter light, run 1, well b: 29680; uninduced reporter light, run 1, well a: 10870; outcome: inactive
dmt — induced reporter light, run 1, well a: 60530; induced reporter light, run 1, well b: 57245; control promoter light, run 1, well a: 69195; control promoter light, run 1, well b: 57050; uninduced reporter light, run 1, well a: 3725; outcome: inactive
Cht10 #1 — induced reporter light, run 1, well a: 47330; induced reporter light, run 1, well b: 65285; control promoter light, run 1, well a: 58255; control promoter light, run 1, well b: 41370; uninduced reporter light, run 1, well a: 3365; outcome: inactive
Cht10 #2 — induced reporter light, run 1, well a: 2.08e5; induced reporter light, run 1, well b: 2.21e5; control promoter light, run 1, well a: 2.03e5; control promoter light, run 1, well b: 1.82e5; uninduced reporter light, run 1, well a: 14855; outcome: inactive
Cht10 #3 — induced reporter light, run 1, well a: 52395; induced reporter light, run 1, well b: 44790; control promoter light, run 1, well a: 46315; control promoter light, run 1, well b: 32860; uninduced reporter light, run 1, well a: 3130; outcome: inactive

Entries above called active (1):
Grx1 — induced reporter light, run 1, well a: 1.49e5; induced reporter light, run 1, well b: 1.15e5; control promoter light, run 1, well a: 2.04e5; control promoter light, run 1, well b: 2.82e5; uninduced reporter light, run 1, well a: 6010; outcome: active
